Assay results taken from PubChem BioAssay AID2417 (National Center for Advancing Translational Sciences (NCATS), 2010).
Several values for one entry are separate records, joined by “and”; a condition that tells them apart may be missing. Equal entries are not always repeated. In all, about 140,000 compounds went through this assay and about 4,300 (3.1%) were called active. Inconclusive results, whose numbers are uncertain, are shown with a selection of clear calls.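 Rule for the calls: active = readout at or below -70, meaning at least 70% loss of cells showing the perinucleolar compartment, a nuclear body marking cancer cells; inconclusive = readout between -30 and a set limit; inactive = the rest.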

experiment: High Content Assay for Compounds that inhibit the Assembly of the Perinucleolar Compartment; conditions: PC3M PTB-GFP, PNC prevalence imaging, 16 h; at 10 µM; active compounds read low;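 note: plate controls were DMSO wells for no effect and camptothecin positive control wells for full effect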
In short: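 Read-out is percentage of cells bearing a perinucleolar compartment, from automated 20x imaging of fixed, Hoechst-stained PC3M PTB-GFP cells. Cells were seeded 4 h, then exposed 16 h to compound (23 nl of library stock) in duplicate plates.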

Row | SMILES | activity change (PNC), negative = inhibition
1 | Cc1[nH]c2ccccc2c1CCO | inconclusive: -67.8%
2 | Cn1cnnc1SCC(=O)Nc1ccc(Br)cc1F | inconclusive: -43.2%
3 | Cc1cc(C)nc(SCC(=O)Nc2ccc(S(=O)(=O)NC(C)(C)C)cc2)n1 | inactive: -16.5%
4 | CC1CCC(C(C)C)C(OC(=O)Cn2c(-c3ccccc3)[n+](C)c3ccccc32)C1 (stereo unspecified) | inconclusive: -77.3% and inconclusive: -52.4%
5 | CCCc1nc2oc3c(NCC4CCCO4)ncnc3c2c2c1COC(C)(C)C2 (stereo unspecified) | inconclusive: -42.5%
6 | O=C(CCN1C(=O)c2ccccc2C1=O)N1CCOCC1 | inconclusive: -52.3%
7 | O=C(NCc1ccccn1)c1ccc(Cl)cc1Cl | inconclusive: -36.5%
8 | COc1ccc(CCNc2oc(-c3ccco3)nc2C#N)cc1 | active: -100%
9 | S=c1[nH]nc(-c2cccc(Br)c2)o1 | inconclusive: -56.5%
10 | c1coc(-c2nnc3sc(-c4cccs4)nn23)c1 | inconclusive: -63.9%
11 | COc1ccc(N2CCN(c3ccc([N+](=O)[O-])cc3Cl)CC2)cc1 | inconclusive: -45.2%
12 | COc1ncnc2c1oc1nc(CC(C)C)c3c(c12)CCCC3 | inconclusive: -40.3%
13 | O=C(c1ccc([N+](=O)[O-])cc1)N1CCSC1c1ccc(Cl)cc1 (stereo unspecified) | inconclusive: -77.7%
14 | CN(C)S(=O)(=O)c1ccc(Cl)c(C(=O)NCc2ccco2)c1 | inactive: 12.8%
15 | O/N=C1/CC/C(=N\O)c2nn(-c3ccccc3)nc21 | inactive: 0.598%
16 | Cc1ccc(C)c(-c2csc(N)c2C(=O)OC(C)C)c1 | inconclusive: -34.9%
17 | CCOC(=O)C(C)n1cnc2c(nnn2-c2ccc(OC)cc2)c1=O (stereo unspecified) | inconclusive: -53.6%
18 | O=C(OCc1cccc(F)c1)c1ccc2c(c1)-c1ccccc1C2=O | inactive: -18.5%
19 | Cc1[nH]nc2c1C1(CCN(Cc3ccccc3)CC1)C(C#N)=C(N)O2 | inconclusive: -32.8%
20 | CCCCCCC(=O)NN1CCN(C)CC1 | inconclusive: -39.3%
21 | CCOCCCNC(=O)C(NC(=O)c1ccc2c(c1)OCO2)c1ccc(OC)cc1 (stereo unspecified) | inactive: 7.65%
22 | COc1ccc(OC)c(NC2=NC3(CCCC3)N=C(N)N2)c1 | inconclusive: -47.9%
23 | C=CCn1c(COc2ccc(Cl)cc2)nnc1SCC(=O)N/N=C/c1ccccc1 | inactive: -18.2%

Row | SMILES | activity change (PNC), negative = inhibition
24 | CCCCOc1ccc(NC(=O)C(=O)NCCC2=CCCCC2)cc1 | inconclusive: -77.4%
25 | CC(Sc1nnc(-c2ccccc2)c(-c2ccccc2)n1)C(=O)N1CCc2ccccc21 (stereo unspecified) | inconclusive: -75.4%
26 | COc1cccc(NC(=O)Cn2c(=O)c3c(ncn3Cc3ccccc3)n(Cc3ccccc3)c2=O)c1 | inconclusive: -55.7%
27 | O=C(NCc1cccs1)C1CCC(=O)N1C1CCCCC1 (stereo unspecified) | inactive: 51.4%
28 | CC1(C)N=C(N)N=C(N)N1c1cccc(C(=O)O)c1 | inactive: -10.5%
29 | CC(=O)N(Cc1ccco1)c1nc(C(=O)Nc2ccc(Cl)cc2)c(C)s1 | inconclusive: -47.9%
30 | Cc1ccc(N(CN2C(=O)c3ccccc3C2=O)C(=O)c2ccc([N+](=O)[O-])cc2[N+](=O)[O-])cc1 | inactive: -29.7%
31 | Cc1ccc(SCCc2ccc(C)nc2)cc1 | inconclusive: -54.2%
32 | COc1ccc(S(=O)(=O)NCC(c2cccnc2)N2CCN(c3ccc(F)cc3)CC2)cc1C (stereo unspecified) | inconclusive: -31.1%
33 | O=C1NCCCN1Cc1ccc(F)cc1 | inactive: 36.8%
34 | CCOC(=O)c1ccc(NC(=O)Nc2ccc(S(N)(=O)=O)cc2)cc1 | active: -122%
35 | COc1ccc(CNc2nc3nc4c(c(=O)n3[nH]2)CCC4)cc1 | inconclusive: -63.7%
36 | O=C(O)C1CC=CCC1C(=O)Nc1ccc2c(c1)OCCO2 (stereo unspecified) | active: -119%
37 | CCOc1ccc(NC(=O)C2CC(=O)N(CC)C(=Nc3ccc4c(c3)OCO4)S2)cc1 (stereo unspecified) | inconclusive: -45.8%
38 | Cc1ccc(C(=O)N/C(=C/c2ccco2)C(=O)NCCc2c[nH]c3ccccc23)cc1 | inconclusive: -74.8%
39 | Nn1c(=O)c2ccccc2n2c(SCc3ccccc3)nnc12 | inconclusive: -32%
40 | O=C1OCCC1Sc1nnc(-c2ccccc2Cl)n1Cc1ccccc1 (stereo unspecified) | inconclusive: -40.9%
41 | CCN(CC)CCNc1ncnc2c1sc1nc(N3CCOCC3)c3c(c12)CC(C)(C)SC3 | inconclusive: -42%
42 | COc1cc(-c2nc3ccc4ccccc4c3c3c2CCC3)cc(OC)c1OC | inconclusive: -60.7%
43 | CCn1c(SCC(=O)NCc2ccco2)nc2cccnc21 | inactive: 5.9%
44 | COc1ccc(-c2ccc(SCC(=O)NCc3ccco3)nn2)cc1 | inactive: -1.82%
45 | CN1/C(=C\C(=O)COC(=O)Cn2nnc(-c3ccccc3)n2)C(C)(C)c2ccccc21 | inactive: 10.2%
46 | CCCCNC(=S)NC(=O)c1ccc(Cl)cc1Cl | inconclusive: -31.8%

Row | SMILES | activity change (PNC), negative = inhibition
47 | Cn1cc(C(=O)c2ccc(Cl)cc2)cc1-c1nc2ccccc2n1C | inactive: 28.8%
48 | COc1ccccc1OCc1ccc(C(=O)N2CCN(C)CC2)o1 | inactive: -19.3%
49 | NC(=O)c1cc(-c2ccccc2)nc(Oc2ccccc2)n1 | active: -117%
50 | CN(C)c1ccc(C2SCCN2C(=O)c2ccc([N+](=O)[O-])cc2)cc1 (stereo unspecified) | inconclusive: -32%
51 | CCCCOC(=O)C1Cc2ccccc2C(=O)O1 (stereo unspecified) | inconclusive: -33.8%
52 | CCOc1ccc(CCN2C(=O)C3C4C=CC(C4)C3C2=O)cc1OCC (stereo unspecified) | inconclusive: -33.2%
53 | CCOC(=O)c1c(NC(=O)/C=C/c2ccc(C)o2)sc(C)c1C | inconclusive: -55.2%
54 | COC(=O)c1cc(C(=O)OC)cc(S(=O)(=O)Nc2ccc(Cl)c(N)c2)c1 | inconclusive: -31.9%
55 | CN1CCN(c2ccccc2NC(=O)c2ccc(Br)o2)CC1 | inconclusive: -76.8%
56 | COCCCNC(=O)CCc1nc(-c2ccccc2Cl)no1 | inconclusive: -48.4%
57 | Cn1nnnc1SCC(=O)Nc1cc(C(=O)O)cc(C(=O)O)c1 | inactive: 6.85%
58 | O=C(CSc1ncnc2sc3c(c12)CCCC3)N1CCC(c2noc3ccc(F)cc23)CC1 | inconclusive: -54.6%
59 | CCOc1cc(-c2c(C)c(CC)nc(N)c2C#N)ccc1O | inconclusive: -43.6%
60 | CCCC[n+]1c(-c2ccc(Cl)cc2Cl)csc1Nc1ccccc1 | inconclusive: -41.6%
61 | O=C(C/C(=N/O)c1ccccc1O)C(F)F | inactive: 7.41%
62 | CC1=C(C(=O)OCC2CCCO2)C(c2ccncc2)C2=C(CC(C)(C)CC2=O)N1 (stereo unspecified) | inconclusive: -32.9%
63 | Cc1ccc(NC(=O)c2ccccc2)cc1 | inactive: 67.8%
64 | O=C(CSc1nc2cc(Cl)ccc2o1)c1cccs1 | inconclusive: -52.4%
65 | CCn1c(SCC(=O)Nc2cc3oc4ccccc4c3cc2OC)nnc1-c1cccs1 | inactive: 30.7%
66 | Cc1nnc(N(Cc2ccccc2)C(=O)c2cnccn2)s1 | active: -87.8%
67 | O=C(CCSc1nnc(-c2ccncc2)o1)Nc1ccccc1 | inconclusive: -30.3%
68 | CC1(C)CC(=O)c2cc(OCC(=O)N3CCCCCC3)ccc2O1 | inconclusive: -34.6%
69 | Nc1c(C(=O)NC2CCCC2)sc2nc(-c3cccs3)ccc12 | inconclusive: -30.7%

Row | SMILES | activity change (PNC), negative = inhibition
70 | O=C(COc1ccccc1)NCc1cccs1 | inconclusive: -30.3%
71 | O=[N+]([O-])c1cc(S(=O)(=O)Nc2ccccc2)ccc1-n1nnc2ccccc21 | active: -114%
72 | Cc1onc(-c2ccccc2)c1C(=O)Nc1ccc(S(=O)(=O)N2CCCCC2)cc1 | inactive: 58.6%
73 | CCc1cc(=O)n2[nH]c(C)c(-c3ccccc3OC)c2n1 | inconclusive: -53.1%
74 | Cc1ccc(S(=O)(=O)Cc2ccc(C(=O)NCCCN3CCN(C)CC3)o2)cc1 | inconclusive: -55.5%
75 | Cc1ccc(Cn2c(SCC(C)C)nc3c2c(=O)[nH]c(=O)n3C)cc1 | inconclusive: -54.5%
76 | Cc1ccc(CC2S/C(=C(/C#N)C(=O)NCc3ccco3)N(c3ccccc3)C2=O)cc1 (stereo unspecified) | inconclusive: -38%
77 | O=C(NCC(c1cccnc1)N1CCN(c2ccccc2F)CC1)c1ccco1 (stereo unspecified) | inconclusive: -64%
78 | O=C(NCc1cccnc1)C1CCN(S(=O)(=O)c2cccnc2)CC1 | inactive: 13.4%
79 | c1ccc(-n2nnnc2CN2CCOCC2)cc1 | inactive: 29.2%
80 | O=C(COC(=O)c1cccc(S(=O)(=O)N2CCc3ccccc32)c1)Nc1ncc(Cl)cc1Cl | inconclusive: -56.9%
81 | COc1ccc(/C=N/Nc2nncc3ccccc23)cc1 | inconclusive: -31%
82 | Cc1nn(C)c(C)c1CN(C)S(=O)(=O)c1ccc2ccccc2c1 | inactive: 13.8%
83 | NS(=O)(=O)c1ccc(NC(=O)C(Sc2ccccc2)c2ccccc2)cc1 (stereo unspecified) | inactive: 6.09%
84 | CN(c1ccccc1C(=O)O)S(=O)(=O)c1ccc2c3c(cccc13)C(=O)N2 | inconclusive: -58.1%
85 | Cc1cccc(NC(=S)N(CCN(C)C)Cc2cc3cc(C)cc(C)c3[nH]c2=O)c1 | inactive: 2.91%
86 | COC(=O)c1ccccc1NC(=O)c1ccc(NS(C)(=O)=O)cc1 | inconclusive: -30.2%
87 | COc1ccc(-n2c(SCC(=O)N3CCCC(C)C3)nnc2-c2cccnc2)cc1 (stereo unspecified) | inactive: -17.5%
88 | N#Cc1ccc(-c2csc(NC(=O)C3CC3)n2)cc1 | inconclusive: -41.4%
89 | N#Cc1cn(Cc2cccc(Cl)c2)c2ccccc12 | active: -103%
90 | Cc1ccc(S(=O)(=O)N2CCN(C(=O)N3CCOCC3)C2c2ccc(N(C)C)cc2)cc1 (stereo unspecified) | inconclusive: -34.9%
91 | CC(C)CN(C(=O)COC(=O)CCc1c[nH]c2ccccc12)C1CCS(=O)(=O)C1 (stereo unspecified) | inconclusive: -37.6%

Some of the entries so far, in markdown:

| Row | SMILES | activity change (PNC), negative = inhibition |
| --- | --- | --- |
| 74 | Cc1ccc(S(=O)(=O)Cc2ccc(C(=O)NCCCN3CCN(C)CC3)o2)cc1 | inconclusive: -55.5% |
| 75 | Cc1ccc(Cn2c(SCC(C)C)nc3c2c(=O)[nH]c(=O)n3C)cc1 | inconclusive: -54.5% |
| 76 | Cc1ccc(CC2S/C(=C(/C#N)C(=O)NCc3ccco3)N(c3ccccc3)C2=O)cc1 (stereo unspecified) | inconclusive: -38% |
| 77 | O=C(NCC(c1cccnc1)N1CCN(c2ccccc2F)CC1)c1ccco1 (stereo unspecified) | inconclusive: -64% |
